Test results published in publication PMC8980529.
No constants are given. Whether binding was seen depends on the method and setting. Some results given as binding are weak or reduced against the parent protein; the word gives no strength.

Experiments:
Fibromodulin = biological target: T1, Fibromodulin (UniProt Q06828); experiment: ELISA; ECM proteins immobilised (10 µg/ml), incubated with FHR5 and its fragments CCPs 1-4, CCPs 3-7, CCPs 8-9 in equimolar concentrations (100 nM or 200 nM); detected with goat anti-human FHR5; both purified
T1 sequence: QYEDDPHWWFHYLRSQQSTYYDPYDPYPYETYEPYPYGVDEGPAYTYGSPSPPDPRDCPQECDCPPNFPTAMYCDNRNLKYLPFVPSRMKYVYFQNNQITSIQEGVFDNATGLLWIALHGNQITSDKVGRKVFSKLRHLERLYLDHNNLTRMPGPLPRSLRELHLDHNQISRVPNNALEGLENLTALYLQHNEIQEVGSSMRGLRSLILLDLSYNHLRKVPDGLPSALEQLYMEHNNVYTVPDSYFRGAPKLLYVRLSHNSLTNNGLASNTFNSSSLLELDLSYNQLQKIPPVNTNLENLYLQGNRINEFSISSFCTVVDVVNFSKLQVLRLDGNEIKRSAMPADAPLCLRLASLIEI

[1] = biological target: T2, Proline/arginine-rich end leucine-rich repeat protein (UniProt P51888); experiment: as above
T2 sequence: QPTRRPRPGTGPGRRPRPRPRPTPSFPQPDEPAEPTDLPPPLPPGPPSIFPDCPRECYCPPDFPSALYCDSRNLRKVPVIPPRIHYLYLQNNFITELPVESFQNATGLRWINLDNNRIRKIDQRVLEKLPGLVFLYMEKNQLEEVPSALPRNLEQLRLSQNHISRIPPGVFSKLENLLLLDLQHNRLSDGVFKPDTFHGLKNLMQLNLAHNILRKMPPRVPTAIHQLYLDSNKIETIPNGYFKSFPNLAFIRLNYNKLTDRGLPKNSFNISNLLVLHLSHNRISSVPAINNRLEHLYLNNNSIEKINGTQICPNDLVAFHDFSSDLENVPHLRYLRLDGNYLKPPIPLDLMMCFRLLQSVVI

Osteoadherin [2] = biological target: T3, Osteoadherin (UniProt Q99983); experiment: as above
T3 sequence: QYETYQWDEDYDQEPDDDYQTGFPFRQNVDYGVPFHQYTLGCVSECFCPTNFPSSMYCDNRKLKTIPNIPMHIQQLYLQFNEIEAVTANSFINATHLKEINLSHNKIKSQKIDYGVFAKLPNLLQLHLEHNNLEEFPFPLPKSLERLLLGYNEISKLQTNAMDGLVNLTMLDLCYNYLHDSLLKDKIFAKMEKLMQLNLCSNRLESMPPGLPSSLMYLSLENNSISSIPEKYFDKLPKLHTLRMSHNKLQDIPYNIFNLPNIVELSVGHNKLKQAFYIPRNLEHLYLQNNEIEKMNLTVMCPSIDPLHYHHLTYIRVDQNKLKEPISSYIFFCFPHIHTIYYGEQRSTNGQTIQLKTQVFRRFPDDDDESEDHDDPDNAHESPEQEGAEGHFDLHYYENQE

[3] = biological target: T2, Proline/arginine-rich end leucine-rich repeat protein; experiment: peptide or protein array; ECM proteins (0.5 mg/ml) printed on nitrocellulose-covered slides in triplicates, blocked with 4% BSA; incubated with FHR1 (5, 25, 50 µg/ml) or FHR5 (0.5, 5, 20 µg/ml); detected with goat anti-human FH or anti-FHR5 and Alexa-647 anti-goat IgG; signal above gelatin taken as binding; both purified
Osteoadherin [4] = biological target: T3, Osteoadherin; experiment: as above

Measured: binding

B1: Recombinant human factor H-related protein 5 (protein, UniProt Q9BXR6 19-569)
chain: EGTLCDFPKIHHGFLYDEEDYNPFSQVPTGEVFYYSCEYNFVSPSKSFWTRITCTEEGWSPTPKCLRMCSFPFVKNGHSESSGLIHLEGDTVQIICNTGYSLQNNEKNISCVERGWSTPPICSFTKGECHVPILEANVDAQPKKESYKVGDVLKFSCRKNLIRVGSDSVQCYQFGWSPNFPTCKGQVRSCGPPPQLSNGEVKEIRKEEYGHNEVVEYDCNPNFIINGPKKIQCVDGEWTTLPTCVEQVKTCGYIPELEYGYVQPSVPPYQHGVSVEVNCRNEYAMIGNNMITCINGIWTELPMCVATHQLKRCKIAGVNIKTLLKLSGKEFNHNSRIRYRCSDIFRYRHSVCINGKWNPEVDCTEKREQFCPPPPQIPNAQNMTTTVNYQDGEKVAVLCKENYLLPEAKEIVCKDGRWQSLPRCVESTAYCGPPPSINNGDTTSFPLSVYPPGSTVTYRCQSFYKLQGSVTVTCRNKQWSEPPRCLDPCVVSEENMNKNNIQLKWRNDGKLYAKTGDAVEFQCKFPHKAMISSPPFRAICQEGKFEYPICE
binds: Fibromodulin | [1] | Osteoadherin [2] | [3] | Osteoadherin [4]
